The source of these data is the supplement of paper PMC10849652.

The chains behind the UniProt entries cited, without tags or fusion partners. Where a name states a change or a piece, a line headed by the entry shows the natural chain unless it says otherwise.
UniProt O75792: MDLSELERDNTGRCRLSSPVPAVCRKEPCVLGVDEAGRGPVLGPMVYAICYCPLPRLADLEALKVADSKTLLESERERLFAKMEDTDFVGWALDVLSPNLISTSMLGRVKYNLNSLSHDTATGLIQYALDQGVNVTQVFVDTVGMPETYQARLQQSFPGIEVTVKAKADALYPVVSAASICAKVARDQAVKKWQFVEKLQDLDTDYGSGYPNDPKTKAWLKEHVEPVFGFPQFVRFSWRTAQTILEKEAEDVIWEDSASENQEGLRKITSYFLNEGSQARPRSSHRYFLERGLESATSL
UniProt P46063: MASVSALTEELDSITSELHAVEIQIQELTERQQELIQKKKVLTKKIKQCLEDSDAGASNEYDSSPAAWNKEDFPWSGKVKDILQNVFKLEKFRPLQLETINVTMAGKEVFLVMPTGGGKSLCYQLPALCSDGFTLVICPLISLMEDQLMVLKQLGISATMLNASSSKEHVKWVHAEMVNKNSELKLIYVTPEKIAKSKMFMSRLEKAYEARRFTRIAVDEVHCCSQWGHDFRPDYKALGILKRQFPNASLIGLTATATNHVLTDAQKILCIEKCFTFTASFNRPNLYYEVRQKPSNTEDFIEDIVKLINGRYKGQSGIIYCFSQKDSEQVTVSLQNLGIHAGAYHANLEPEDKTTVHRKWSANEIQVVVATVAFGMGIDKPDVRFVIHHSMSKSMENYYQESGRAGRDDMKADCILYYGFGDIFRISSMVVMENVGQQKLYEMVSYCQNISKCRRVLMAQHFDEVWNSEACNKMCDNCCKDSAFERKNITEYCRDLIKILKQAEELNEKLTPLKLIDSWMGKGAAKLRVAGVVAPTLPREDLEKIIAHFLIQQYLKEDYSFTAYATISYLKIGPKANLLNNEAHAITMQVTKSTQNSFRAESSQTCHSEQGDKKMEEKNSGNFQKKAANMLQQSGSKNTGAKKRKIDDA
UniProt Q9H871: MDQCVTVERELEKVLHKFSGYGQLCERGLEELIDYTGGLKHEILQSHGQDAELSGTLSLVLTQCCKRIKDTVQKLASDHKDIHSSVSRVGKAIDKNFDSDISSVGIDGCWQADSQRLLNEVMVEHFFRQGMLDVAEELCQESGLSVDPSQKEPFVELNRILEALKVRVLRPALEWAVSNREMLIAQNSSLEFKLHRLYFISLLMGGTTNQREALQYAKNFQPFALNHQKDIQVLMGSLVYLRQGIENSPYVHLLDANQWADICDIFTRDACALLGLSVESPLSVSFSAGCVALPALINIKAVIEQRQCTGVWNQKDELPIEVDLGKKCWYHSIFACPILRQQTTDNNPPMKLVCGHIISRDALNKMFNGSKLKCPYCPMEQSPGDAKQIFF
UniProt Q6NUM9: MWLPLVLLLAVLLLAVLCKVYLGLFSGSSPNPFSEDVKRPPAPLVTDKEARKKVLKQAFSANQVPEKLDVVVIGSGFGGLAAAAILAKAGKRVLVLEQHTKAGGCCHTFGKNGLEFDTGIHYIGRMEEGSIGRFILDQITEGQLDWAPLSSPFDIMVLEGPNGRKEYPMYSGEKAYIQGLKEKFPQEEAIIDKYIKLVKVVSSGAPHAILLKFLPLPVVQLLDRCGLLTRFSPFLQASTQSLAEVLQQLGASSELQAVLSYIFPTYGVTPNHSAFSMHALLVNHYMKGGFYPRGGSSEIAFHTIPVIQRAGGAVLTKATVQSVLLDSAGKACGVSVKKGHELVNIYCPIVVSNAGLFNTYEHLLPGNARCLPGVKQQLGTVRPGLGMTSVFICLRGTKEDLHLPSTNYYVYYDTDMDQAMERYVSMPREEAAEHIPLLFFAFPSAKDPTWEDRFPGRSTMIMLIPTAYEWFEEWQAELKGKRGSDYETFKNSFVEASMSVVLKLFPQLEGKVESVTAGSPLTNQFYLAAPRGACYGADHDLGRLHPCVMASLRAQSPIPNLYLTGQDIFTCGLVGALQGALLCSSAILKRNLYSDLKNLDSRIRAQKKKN
UniProt Q14257: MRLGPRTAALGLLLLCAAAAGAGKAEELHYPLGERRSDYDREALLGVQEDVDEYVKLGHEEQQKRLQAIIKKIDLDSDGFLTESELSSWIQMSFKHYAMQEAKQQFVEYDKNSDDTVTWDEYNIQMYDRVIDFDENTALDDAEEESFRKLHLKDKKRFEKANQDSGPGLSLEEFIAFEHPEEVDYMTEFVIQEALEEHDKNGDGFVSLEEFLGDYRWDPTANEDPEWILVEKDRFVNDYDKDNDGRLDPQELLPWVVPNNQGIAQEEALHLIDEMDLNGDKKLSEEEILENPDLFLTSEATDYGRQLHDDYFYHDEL
UniProt Q9BWE0: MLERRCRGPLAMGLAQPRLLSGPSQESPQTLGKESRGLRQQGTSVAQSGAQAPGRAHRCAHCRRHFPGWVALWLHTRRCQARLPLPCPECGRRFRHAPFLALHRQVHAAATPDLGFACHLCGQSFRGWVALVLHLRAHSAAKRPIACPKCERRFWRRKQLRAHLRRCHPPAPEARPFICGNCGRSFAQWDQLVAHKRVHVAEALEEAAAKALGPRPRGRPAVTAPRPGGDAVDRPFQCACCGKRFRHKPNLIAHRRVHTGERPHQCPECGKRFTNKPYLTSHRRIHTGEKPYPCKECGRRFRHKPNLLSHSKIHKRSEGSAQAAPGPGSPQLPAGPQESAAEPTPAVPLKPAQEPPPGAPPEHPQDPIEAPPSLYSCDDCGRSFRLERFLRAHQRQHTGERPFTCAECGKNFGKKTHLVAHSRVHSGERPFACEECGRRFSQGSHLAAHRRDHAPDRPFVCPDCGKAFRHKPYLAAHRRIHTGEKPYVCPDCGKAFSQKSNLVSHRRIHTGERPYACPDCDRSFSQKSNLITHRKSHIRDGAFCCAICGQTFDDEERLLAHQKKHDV
UniProt Q96NA2: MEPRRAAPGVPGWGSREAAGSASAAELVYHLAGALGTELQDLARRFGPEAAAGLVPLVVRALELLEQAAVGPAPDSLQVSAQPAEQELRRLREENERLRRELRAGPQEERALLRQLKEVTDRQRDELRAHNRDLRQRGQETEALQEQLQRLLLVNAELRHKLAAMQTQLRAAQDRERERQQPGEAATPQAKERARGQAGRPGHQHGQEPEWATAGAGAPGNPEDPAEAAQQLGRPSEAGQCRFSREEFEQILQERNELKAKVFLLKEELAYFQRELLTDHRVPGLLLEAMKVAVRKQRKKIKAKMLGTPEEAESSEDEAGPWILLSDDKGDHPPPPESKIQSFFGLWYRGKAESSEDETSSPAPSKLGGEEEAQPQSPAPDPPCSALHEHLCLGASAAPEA
UniProt Q14498: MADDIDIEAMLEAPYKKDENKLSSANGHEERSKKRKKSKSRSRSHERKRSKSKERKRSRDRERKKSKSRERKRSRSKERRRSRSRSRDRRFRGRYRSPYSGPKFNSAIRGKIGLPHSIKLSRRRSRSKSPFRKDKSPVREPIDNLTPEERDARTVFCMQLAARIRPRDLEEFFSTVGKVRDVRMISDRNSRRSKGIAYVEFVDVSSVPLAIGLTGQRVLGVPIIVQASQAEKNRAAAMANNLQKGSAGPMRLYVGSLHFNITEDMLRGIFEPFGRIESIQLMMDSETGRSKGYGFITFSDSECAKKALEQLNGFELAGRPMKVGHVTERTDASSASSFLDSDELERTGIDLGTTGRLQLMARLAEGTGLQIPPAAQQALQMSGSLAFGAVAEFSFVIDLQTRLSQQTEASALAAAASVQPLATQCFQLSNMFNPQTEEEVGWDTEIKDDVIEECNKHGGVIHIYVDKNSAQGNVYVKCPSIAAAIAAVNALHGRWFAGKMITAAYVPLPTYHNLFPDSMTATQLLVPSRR
UniProt Q5TBB1: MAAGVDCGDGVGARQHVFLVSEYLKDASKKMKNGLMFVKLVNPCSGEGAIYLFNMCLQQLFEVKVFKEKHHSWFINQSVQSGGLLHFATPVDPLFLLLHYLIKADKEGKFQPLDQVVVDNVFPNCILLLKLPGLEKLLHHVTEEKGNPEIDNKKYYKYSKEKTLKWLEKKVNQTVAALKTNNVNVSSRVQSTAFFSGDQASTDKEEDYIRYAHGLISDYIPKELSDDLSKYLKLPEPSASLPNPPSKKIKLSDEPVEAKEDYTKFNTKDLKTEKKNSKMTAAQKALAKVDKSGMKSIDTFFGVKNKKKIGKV
UniProt P51606: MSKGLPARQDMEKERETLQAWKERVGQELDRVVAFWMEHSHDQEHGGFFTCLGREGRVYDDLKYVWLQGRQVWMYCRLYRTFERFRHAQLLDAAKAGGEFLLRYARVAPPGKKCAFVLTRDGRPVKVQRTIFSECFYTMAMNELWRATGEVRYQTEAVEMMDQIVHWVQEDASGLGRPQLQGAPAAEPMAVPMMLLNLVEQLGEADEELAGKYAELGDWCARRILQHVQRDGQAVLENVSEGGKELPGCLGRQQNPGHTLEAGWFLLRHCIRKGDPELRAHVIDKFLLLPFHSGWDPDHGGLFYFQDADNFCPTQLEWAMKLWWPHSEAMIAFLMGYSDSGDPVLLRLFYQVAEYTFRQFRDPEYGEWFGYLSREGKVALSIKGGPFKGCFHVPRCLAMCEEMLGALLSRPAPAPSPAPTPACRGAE
UniProt Q96I51, whole entry, looked up: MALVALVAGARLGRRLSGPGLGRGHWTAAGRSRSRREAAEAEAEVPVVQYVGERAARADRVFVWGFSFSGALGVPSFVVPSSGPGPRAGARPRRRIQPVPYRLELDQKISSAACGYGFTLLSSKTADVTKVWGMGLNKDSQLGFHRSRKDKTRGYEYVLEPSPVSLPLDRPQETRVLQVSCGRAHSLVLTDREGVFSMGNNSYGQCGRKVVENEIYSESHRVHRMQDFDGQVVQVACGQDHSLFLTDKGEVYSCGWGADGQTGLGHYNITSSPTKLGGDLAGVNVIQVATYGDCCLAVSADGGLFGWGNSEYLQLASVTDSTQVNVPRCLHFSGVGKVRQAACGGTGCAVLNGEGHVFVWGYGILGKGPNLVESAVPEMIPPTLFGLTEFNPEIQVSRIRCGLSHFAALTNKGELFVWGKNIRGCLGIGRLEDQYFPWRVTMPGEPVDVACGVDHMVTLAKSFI
UniProt P40937, whole entry, looked up: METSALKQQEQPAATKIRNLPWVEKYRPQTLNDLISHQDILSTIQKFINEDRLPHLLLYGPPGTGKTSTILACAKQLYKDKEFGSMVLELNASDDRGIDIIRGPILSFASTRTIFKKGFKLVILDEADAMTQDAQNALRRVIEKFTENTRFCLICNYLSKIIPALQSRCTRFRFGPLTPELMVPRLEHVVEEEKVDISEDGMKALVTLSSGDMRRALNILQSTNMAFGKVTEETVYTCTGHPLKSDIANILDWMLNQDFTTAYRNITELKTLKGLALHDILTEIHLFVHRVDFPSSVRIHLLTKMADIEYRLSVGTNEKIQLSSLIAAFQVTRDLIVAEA
UniProt Q5TA31: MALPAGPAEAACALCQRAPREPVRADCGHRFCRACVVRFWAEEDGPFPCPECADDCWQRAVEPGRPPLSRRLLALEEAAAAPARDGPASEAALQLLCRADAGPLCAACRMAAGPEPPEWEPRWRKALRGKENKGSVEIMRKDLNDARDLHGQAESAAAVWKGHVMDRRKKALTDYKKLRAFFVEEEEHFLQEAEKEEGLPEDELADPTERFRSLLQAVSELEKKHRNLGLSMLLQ
UniProt Q96AA3: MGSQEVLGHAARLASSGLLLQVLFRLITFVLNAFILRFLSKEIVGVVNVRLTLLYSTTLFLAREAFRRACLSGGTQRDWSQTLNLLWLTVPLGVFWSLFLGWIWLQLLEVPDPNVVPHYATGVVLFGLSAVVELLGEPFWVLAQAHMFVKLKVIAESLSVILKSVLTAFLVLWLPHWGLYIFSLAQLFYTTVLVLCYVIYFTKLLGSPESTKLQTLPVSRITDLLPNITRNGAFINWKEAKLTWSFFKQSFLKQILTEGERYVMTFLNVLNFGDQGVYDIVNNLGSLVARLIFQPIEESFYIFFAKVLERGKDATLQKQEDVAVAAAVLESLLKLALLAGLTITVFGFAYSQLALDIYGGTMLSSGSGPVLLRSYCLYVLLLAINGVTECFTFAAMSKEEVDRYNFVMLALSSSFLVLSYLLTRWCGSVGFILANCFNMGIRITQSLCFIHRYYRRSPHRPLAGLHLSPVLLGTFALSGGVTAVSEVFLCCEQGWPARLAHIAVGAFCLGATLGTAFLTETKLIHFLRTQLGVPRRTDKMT
UniProt Q06330: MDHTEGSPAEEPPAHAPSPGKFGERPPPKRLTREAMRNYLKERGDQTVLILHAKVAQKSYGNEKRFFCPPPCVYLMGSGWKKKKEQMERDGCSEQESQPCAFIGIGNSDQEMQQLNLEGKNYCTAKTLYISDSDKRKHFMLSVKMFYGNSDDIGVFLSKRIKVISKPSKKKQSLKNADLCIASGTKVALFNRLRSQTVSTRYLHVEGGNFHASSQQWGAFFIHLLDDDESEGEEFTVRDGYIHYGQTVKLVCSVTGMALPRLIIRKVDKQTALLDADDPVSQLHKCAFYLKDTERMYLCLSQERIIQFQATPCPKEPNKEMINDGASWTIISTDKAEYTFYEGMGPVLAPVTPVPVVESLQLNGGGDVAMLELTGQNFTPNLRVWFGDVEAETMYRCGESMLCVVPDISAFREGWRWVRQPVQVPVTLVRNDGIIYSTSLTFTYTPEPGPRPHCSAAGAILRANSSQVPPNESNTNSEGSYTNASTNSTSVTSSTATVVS

Some of the results follow.

Compound in the first test: C1=CC=C(C=C1)[C@H](COC2=CC3=C(C=C2)NC(=O)N3)NC(=O)C4=CC=CN(C4=O)CC5=CC(=C(C=C5)F)F
The test is described as follows: log2 fold change, soluble protein after heating vs DMSO (PISA); higher = thermal stabilisation; K562 cells, 10 uM, 30 min; active = over 0.2 and 3.5 SD of the protein, either way, in both replicates (recomputed). Summed up:
(§1)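 Thermal stability values are relative to control samples and come from duplicates. They are expressed as log2 fold changes. For measurement, K562 cells (2×10^6 cells/mL) received 10 μM compound for 30 min, and aliquots were heated for 3 min over 48°C-58°C, pooled, and extracted at 4°C in PBS with 0.5% NP-40. Soluble protein, the supernatant after 21,000xg for 90 min, was quantified by TMTpro 16plex LC-MS/MS with equalised channel sums.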
Regarding RFX5 (UniProt P48382), the log2 fold change was inactive: -0.091.
As to RIDA (UniProt P52758), the log2 fold change was inactive: 0.003.
With RINT1 (UniProt Q6NUQ1), the log2 fold change was inactive: -0.004.
Take RNF14 (UniProt Q9UBS8): the log2 fold change was inactive: -0.031.
The same measure, in the same setting: to RBX1 (UniProt P62877) belongs inactive: -0.031; to RNASEH2A (UniProt O75792), inactive: -0.008.
Still for that read-out and setting: to RECQL (UniProt P46063) belongs inactive: -0.012; to RGCC (UniProt Q9H4X1), inactive: 0.137; to RMND5A (UniProt Q9H871), inactive: 0.035.
Still for that read-out and setting: then RETSAT (UniProt Q6NUM9), with inactive: 0.028; and RCN2 isoform 2 (UniProt Q14257), with inactive: -0.059.
On to RNF149 (UniProt Q8NC42), for which the log2 fold change was inactive: -0.021.
Same read-out and setting: to RIMKLB (UniProt Q9ULI2) belongs inactive: 0.026; to RETREG2 (UniProt Q8NC44), inactive: 0.04.
Still for that read-out and setting: then REPIN1 isoform 4 (UniProt Q9BWE0), with inactive: -0.064.
Regarding RILP (UniProt Q96NA2), the log2 fold change is inactive: 0.031.
On the same count and under the same terms, then RNASET2 (UniProt O00584), with inactive: 0.037; and RERE (UniProt Q9P2R6), with inactive: -0.051; and RBM39 (UniProt Q14498), with inactive: 0.015.
The same measure, in the same setting: then RNASEH2B (UniProt Q5TBB1), with inactive: -0.099.
Same read-out and setting: to RENBP (UniProt P51606) belongs inactive: -0.047; to RFX3 (UniProt P48380), inactive: -0.117.
Take RIOK2 (UniProt Q9BVS4): the log2 fold change is inactive: 0.034.
The same measure, in the same setting: to RBM4 (UniProt Q9BWF3) belongs inactive: -0.029.
Regarding RFC3 (UniProt P40938), the log2 fold change is inactive: -0.005.
Consider RBMX (UniProt P38159), for which the log2 fold change is inactive: 0.101.
Regarding RNF121 (UniProt Q9H920), the log2 fold change is inactive: -0.048.
Same read-out and setting: then RCC1L (UniProt Q96I51), with inactive: -0.001; and RFC5 (UniProt P40937), with inactive: -0.003.
For the target RMC1 (UniProt Q96DM3), the log2 fold change is inactive: -0.009.
Turning to RNF126 (UniProt Q9BV68), the log2 fold change is inactive: -0.031.
Same read-out and setting: then RNF187 (UniProt Q5TA31), with inactive: -0.047; and RNF123 isoform 2 (UniProt Q5XPI4), with inactive: -0.02.
On the same count and under the same terms, to RFT1 (UniProt Q96AA3) belongs inactive: 0.008; to RBPJ (UniProt Q06330), inactive: 0.015.
Same read-out and setting: to RIOX2 (UniProt Q8IUF8) belongs inactive: -0.008.

Compound in a further test: CC1=C(SC2=C1C(=N[C@H](C3=NN=C(N32)C)CC(=O)N)C4=CC=C(C=C4)Cl)C
Described as above. Summed up: as §1
For RIDA (UniProt P52758), the log2 fold change was inactive: 0.01.
Same read-out and setting: then RINT1 (UniProt Q6NUQ1), with inactive: -0.102; and RNF14 (UniProt Q9UBS8), with inactive: -0.005; and RBX1 (UniProt P62877), with inactive: 0.005.
The same measure, in the same setting: then RNASEH2A (UniProt O75792), with inactive: 0.065; and RECQL (UniProt P46063), with inactive: 0.087.
Same read-out and setting: then RMND5A (UniProt Q9H871), with inactive: 0.008; and RETSAT (UniProt Q6NUM9), with inactive: 0.114.
In the case of RCN2 isoform 2 (UniProt Q14257), the log2 fold change was inactive: 0.014.
Still for that read-out and setting: to RNF149 (UniProt Q8NC42) belongs inactive: 0.003; to RETREG2 (UniProt Q8NC44), inactive: 0.045.
In the case of REPIN1 isoform 4 (UniProt Q9BWE0), the log2 fold change was inactive: -0.035.
Same read-out and setting: to RILP (UniProt Q96NA2) belongs inactive: 0.055; to RNASET2 (UniProt O00584), inactive: -0.038; to RBM39 (UniProt Q14498), inactive: -0.004.
Same read-out and setting: then RNASEH2B (UniProt Q5TBB1), with inactive: 0.079; and RENBP (UniProt P51606), with inactive: 0.042; and RIOK2 (UniProt Q9BVS4), with inactive: -0.038.
Consider RBM4 (UniProt Q9BWF3), for which the log2 fold change was inactive: -0.074.
RFC3 (UniProt P40938): the log2 fold change was inactive: 0.028.
Same read-out and setting: to RBMX (UniProt P38159) belongs inactive: -0.17; to RNF121 (UniProt Q9H920), inactive: 0.055; to RCC1L (UniProt Q96I51), inactive: 0.103.
Take RFC5 (UniProt P40937): the log2 fold change was inactive: 0.032.
For the target RMC1 (UniProt Q96DM3), the log2 fold change is inactive: 0.064.
Same read-out and setting: to RNF126 (UniProt Q9BV68) belongs inactive: 0.028.
Same read-out and setting: then RNF187 (UniProt Q5TA31), with inactive: 0.07; and RNF123 isoform 2 (UniProt Q5XPI4), with inactive: -0.012; and RFT1 (UniProt Q96AA3), with inactive: 0.025.
Same read-out and setting: then RBPJ (UniProt Q06330), with inactive: 0.002.
Take RIOX2 (UniProt Q8IUF8): the log2 fold change was inactive: 0.031.

Compound in another test: CC1=C2C(=CC=C1)N=C(N(C2=O)C3=CC=CC=C3C)CN4C=NC5=C(N=CN=C54)N
Described as above. Summed up: as §1
RIDA (UniProt P52758): the log2 fold change is inactive: -0.027.
Still for that read-out and setting: to RINT1 (UniProt Q6NUQ1) belongs inactive: -0.107; to RNF14 (UniProt Q9UBS8), inactive: -0.048.
The same measure, in the same setting: to RBX1 (UniProt P62877) belongs inactive: 0.031; to RNASEH2A (UniProt O75792), inactive: 0.183; to RECQL (UniProt P46063), inactive: 0.015.
On the same count and under the same terms, to RMND5A (UniProt Q9H871) belongs inactive: 0.034.
Turning to RETSAT (UniProt Q6NUM9), the log2 fold change was inactive: 0.119.
Still for that read-out and setting: then RCN2 isoform 2 (UniProt Q14257), with inactive: -0.004.
Still for that read-out and setting: to RNF149 (UniProt Q8NC42) belongs inactive: -0.026; to RETREG2 (UniProt Q8NC44), inactive: -0.131; to REPIN1 isoform 4 (UniProt Q9BWE0), inactive: -0.018.
Regarding RILP (UniProt Q96NA2), the log2 fold change is inactive: 0.026.
The same measure, in the same setting: then RNASET2 (UniProt O00584), with inactive: 0.063; and RBM39 (UniProt Q14498), with inactive: -0.02.
As for RNASEH2B (UniProt Q5TBB1), the log2 fold change is inactive: 0.129.
The same measure, in the same setting: then RENBP (UniProt P51606), with inactive: 0.063.
The same measure, in the same setting: then RIOK2 (UniProt Q9BVS4), with inactive: -0.119.
On to RBM4 (UniProt Q9BWF3), for which the log2 fold change is inactive: -0.011.
The same measure, in the same setting: to RFC3 (UniProt P40938) belongs inactive: 0.029; to RBMX (UniProt P38159), inactive: -0.112; to RNF121 (UniProt Q9H920), inactive: -0.007.
On the same count and under the same terms, then RCC1L (UniProt Q96I51), with inactive: 0.018; and RFC5 (UniProt P40937), with inactive: -0.006.
On the same count and under the same terms, then RMC1 (UniProt Q96DM3), with inactive: 0.1; and RNF126 (UniProt Q9BV68), with inactive: 0.015.
Turning to RNF187 (UniProt Q5TA31), the log2 fold change was inactive: -0.033.
Same read-out and setting: to RNF123 isoform 2 (UniProt Q5XPI4) belongs inactive: 0.041; to RFT1 (UniProt Q96AA3), inactive: 0.034.
On the same count and under the same terms, then RBPJ (UniProt Q06330), with inactive: 0.004.
Still for that read-out and setting: to RIOX2 (UniProt Q8IUF8) belongs inactive: 0.013.
